Measured values taken from patent US10150737B2, “Compounds for controlling arthropods” (priority 2013, dated 2018).
Some entries share one result that the patent states for a list of compounds. Some ranges recur; such a range may be that of the whole group of compounds.

Experiments:
Format in all cases: in vivo
Conditions in all cases: glazed tile, exposure 30 minutes, 24 hours after contact
[1] = system: Anopheles gamhiae strain RSPH (homozygot kdr); assay: Anopheles test (ANPHGB surface treatment)
Protocol: (§1) Solvent: acetone+2000 ppm rapeseed oil methyl ester (RME)
(§2) To produce an appropriate active ingredient formulation, the active ingredient is dissolved in the solvent (2 mg/ml). The active ingredient formulation is pipetted onto a glazed tile and, after it has dried off, adult mosquitoes of the species Anopheles gamhiae strain RSPH (homozygot kdr) are placed onto the treated tile. The exposure time is 30 minutes.
(§3) 24 hours after contact with the treated surface, mortality in % is determined. 100% means that all mosquitoes have been killed; 0% means that none of the mosquitoes have been killed.

[2] = system: Anopheles funestus strain FUMOZ-R; assay: Anopheles test (ANPHFU surface treatment)
Protocol: as §1
as §2, with “funestus” for “gamhiae”, “FUMOZ-R (Hunt et al., Med Vet Entomol. 2005 September; 19 (3):271-5)” for “RSPH (homozygot kdr)”
as §3

[3] = system: Aedes aegypti strain MONHEIM; assay: Aedes test (AEDSAE surface treatment)
Protocol: as §1
as §2, with “Aedes aegypti” for “Anopheles gamhiae”, “MONHEIM” for “RSPH (homozygot kdr)”
as §3

Measured: efficacy (mortality)

O=C(NCC(F)(F)F)c1cc(-c2cnn(-c3c(Cl)cc(C(F)(C(F)(F)F)C(F)(F)F)cc3C(F)(F)F)c2)ccc1Cl [I-T3-58]
90-100%: [1]; application rate 20 mg/m2 | [2]; application rate 100 mg/m2 | [3]; application rate 20 mg/m2 | [3]; application rate 100 mg/m2

O=C(NC1CC1)c1cc(-c2cnn(-c3c(F)cc(C(F)(C(F)(F)F)C(F)(F)F)cc3F)c2)ccc1Cl [I-T3-61]
90-100%: [1]; application rate 20 mg/m2 | [1]; application rate 100 mg/m2 | [2]; application rate 20 mg/m2 | [3]; application rate 20 mg/m2 | [3]; application rate 100 mg/m2

Cc1ncc(-c2cnn(-c3c(Cl)cc(C(F)(C(F)(F)F)C(F)(F)F)cc3Cl)c2)cc1C(=O)NC1(C#N)CC1 [I-T3-92]
90-100%: [1]; application rate 20 mg/m2 | [2]; application rate 20 mg/m2 | [2]; application rate 100 mg/m2 | [3]; application rate 20 mg/m2 | [3]; application rate 100 mg/m2

CN(C(=O)c1cc(-c2cnn(-c3c(Cl)cc(C(F)(C(F)(F)F)C(F)(F)F)cc3Cl)c2)cnc1Cl)C1CC1 [I-T3-100]
90-100%: [1]; application rate 20 mg/m2 | [1]; application rate 100 mg/m2 | [2]; application rate 20 mg/m2 | [2]; application rate 100 mg/m2 | [3]; application rate 20 mg/m2 | [3]; application rate 100 mg/m2

CN(C(=O)c1cc(-c2cnn(-c3c(Cl)cc(C(F)(C(F)(F)F)C(F)(F)F)cc3Cl)c2)cnc1Cl)C1(C#N)CC1 [I-T3-102]
90-100%: [1]; application rate 20 mg/m2 | [1]; application rate 100 mg/m2 | [2]; application rate 20 mg/m2 | [2]; application rate 100 mg/m2 | [3]; application rate 20 mg/m2 | [3]; application rate 100 mg/m2

O=C(NC1CC1)c1cc(-c2cnn(-c3c(Cl)cc(C(F)(C(F)(F)F)C(F)(F)F)cc3C(F)(F)F)c2)cnc1Cl [I-T3-112]
90-100%: [1]; application rate 20 mg/m2 | [1]; application rate 100 mg/m2 | [2]; application rate 20 mg/m2 | [2]; application rate 100 mg/m2 | [3]; application rate 20 mg/m2 | [3]; application rate 100 mg/m2

CN(C(=O)c1cc(-c2cnn(-c3c(Cl)cc(C(F)(C(F)(F)F)C(F)(F)F)cc3C(F)(F)F)c2)cnc1Cl)C1(C#N)CC1 [I-T3-116]
90-100%: [1]; application rate 20 mg/m2 | [2]; application rate 20 mg/m2 | [3]; application rate 20 mg/m2

Cc1cc(C(F)(C(F)(F)F)C(F)(F)F)cc(C(F)(F)F)c1-n1cc(-c2cnc(C)c(C(=O)N(C)C3(C#N)CC3)c2)cn1 [I-T3-123]
90-100%: [1]; application rate 100 mg/m2 | [2]; application rate 20 mg/m2 | [2]; application rate 100 mg/m2 | [3]; application rate 20 mg/m2 | [3]; application rate 100 mg/m2

Cc1ncc(-c2cnn(-c3c(Cl)cc(C(F)(C(F)(F)F)C(F)(F)F)cc3Cl)c2)cc1C(=O)N(C)C1CC1 [I-T3-133]
90-100%: [1]; application rate 20 mg/m2 | [1]; application rate 100 mg/m2 | [2]; application rate 100 mg/m2 | [3]; application rate 20 mg/m2 | [3]; application rate 100 mg/m2

CN(C(=O)c1cc(-c2cnn(-c3ccc(C(F)(C(F)(F)F)C(F)(F)F)cc3C(F)(F)F)c2)ccc1Cl)C1CC1 [I-T3-134]
90-100%: [1]; application rate 20 mg/m2 | [1]; application rate 100 mg/m2 | [2]; application rate 20 mg/m2 | [2]; application rate 100 mg/m2 | [3]; application rate 20 mg/m2 | [3]; application rate 100 mg/m2

CNc1ncc(-c2cnn(-c3c(Cl)cc(C(F)(C(F)(F)F)C(F)(F)F)cc3Cl)c2)cc1C(=O)NC1CC1 [I-T3-136]
90-100%: [1]; application rate 20 mg/m2 | [1]; application rate 100 mg/m2 | [2]; application rate 20 mg/m2 | [2]; application rate 100 mg/m2 | [3]; application rate 20 mg/m2 | [3]; application rate 100 mg/m2

CCN(C(=O)c1cc(-c2cnn(-c3c(Cl)cc(C(F)(F)F)cc3Cl)c2)cnc1Cl)C1CC1 [I-T3-145]
90-100%: [1]; application rate 20 mg/m2 | [1]; application rate 100 mg/m2 | [2]; application rate 20 mg/m2 | [2]; application rate 100 mg/m2 | [3]; application rate 20 mg/m2 | [3]; application rate 100 mg/m2

O=C(NC1CC1)c1cc(-c2cnn(-c3c(Br)cc(C(F)(C(F)(F)F)C(F)(F)F)cc3C(F)(F)F)c2)ccc1Cl [I-T3-148]
90-100%: [1]; application rate 20 mg/m2 | [1]; application rate 100 mg/m2 | [2]; application rate 20 mg/m2 | [2]; application rate 100 mg/m2 | [3]; application rate 20 mg/m2 | [3]; application rate 100 mg/m2

N#CC1(NC(=O)c2cc(-c3cnn(-c4c(Br)cc(C(F)(C(F)(F)F)C(F)(F)F)cc4C(F)(F)F)c3)ccc2Cl)CC1 [I-T3-155]
90-100%: [1]; application rate 20 mg/m2 | [1]; application rate 100 mg/m2 | [2]; application rate 20 mg/m2 | [2]; application rate 100 mg/m2 | [3]; application rate 20 mg/m2 | [3]; application rate 100 mg/m2

NC(=S)C1(NC(=O)c2cc(-c3cnn(-c4c(Cl)cc(C(F)(C(F)(F)F)C(F)(F)F)cc4C(F)(F)F)c3)cnc2Cl)CC1 [I-T3-159]
90-100%: [1]; application rate 20 mg/m2 | [2]; application rate 20 mg/m2 | [2]; application rate 100 mg/m2 | [3]; application rate 20 mg/m2

O=C(NC1CC1)c1cc(-c2cnn(-c3c(Br)cc(C(F)(C(F)(F)F)C(F)(F)F)cc3C(F)(F)F)c2)cnc1Cl [I-T3-160]
90-100%: [1]; application rate 20 mg/m2 | [1]; application rate 100 mg/m2 | [2]; application rate 20 mg/m2 | [2]; application rate 100 mg/m2 | [3]; application rate 20 mg/m2 | [3]; application rate 100 mg/m2

O=C(NC1CC1)c1cc(-c2cnn(-c3c(Cl)cc(C(F)(C(F)(F)F)C(F)(F)F)cc3OC(F)(F)F)c2)ccc1Cl [I-T3-162]
90-100%: [1]; application rate 20 mg/m2 | [1]; application rate 100 mg/m2 | [2]; application rate 20 mg/m2 | [2]; application rate 100 mg/m2 | [3]; application rate 20 mg/m2 | [3]; application rate 100 mg/m2

O=C(NC1CC1)c1cc(-c2cnn(-c3c(Cl)cc(C(F)(C(F)(F)F)C(F)(F)F)cc3OC(F)(F)F)c2)cnc1Cl [I-T3-189]
90-100%: [1]; application rate 20 mg/m2 | [1]; application rate 100 mg/m2 | [2]; application rate 20 mg/m2 | [2]; application rate 100 mg/m2 | [3]; application rate 20 mg/m2 | [3]; application rate 100 mg/m2

Cc1cc(C(F)(C(F)(F)F)C(F)(F)F)cc(C)c1-c1cc(-c2ccc(Cl)c(C(=O)NC3(C#N)CC3)c2)on1 [I-T22-2]
90-100%: [1]; application rate 20 mg/m2 | [2]; application rate 20 mg/m2 | [2]; application rate 100 mg/m2 | [3]; application rate 20 mg/m2 | [3]; application rate 100 mg/m2
